Test results: publication PMC8274477
Results are given in words; binding and its absence hold for the method and conditions named. Some entries that bind do so weakly or less than the wild type.

Assays:
Assay in all cases: peptide or protein array; HuProt human proteome microarray; 5 ug/5 ml biotin-labelled LUBAC or OTULIN in solution, 1 h at room temperature; Cy5-streptavidin, scanned at 635 nm; BSA as negative control; hits: Z-score >= 3 and I_(Mean_Ratio) >= 1.4; both purified
HCFC2 (human) = molecular target: T1, HCFC2 (human) (UniProt Q9Y5Z7)
T1 sequence: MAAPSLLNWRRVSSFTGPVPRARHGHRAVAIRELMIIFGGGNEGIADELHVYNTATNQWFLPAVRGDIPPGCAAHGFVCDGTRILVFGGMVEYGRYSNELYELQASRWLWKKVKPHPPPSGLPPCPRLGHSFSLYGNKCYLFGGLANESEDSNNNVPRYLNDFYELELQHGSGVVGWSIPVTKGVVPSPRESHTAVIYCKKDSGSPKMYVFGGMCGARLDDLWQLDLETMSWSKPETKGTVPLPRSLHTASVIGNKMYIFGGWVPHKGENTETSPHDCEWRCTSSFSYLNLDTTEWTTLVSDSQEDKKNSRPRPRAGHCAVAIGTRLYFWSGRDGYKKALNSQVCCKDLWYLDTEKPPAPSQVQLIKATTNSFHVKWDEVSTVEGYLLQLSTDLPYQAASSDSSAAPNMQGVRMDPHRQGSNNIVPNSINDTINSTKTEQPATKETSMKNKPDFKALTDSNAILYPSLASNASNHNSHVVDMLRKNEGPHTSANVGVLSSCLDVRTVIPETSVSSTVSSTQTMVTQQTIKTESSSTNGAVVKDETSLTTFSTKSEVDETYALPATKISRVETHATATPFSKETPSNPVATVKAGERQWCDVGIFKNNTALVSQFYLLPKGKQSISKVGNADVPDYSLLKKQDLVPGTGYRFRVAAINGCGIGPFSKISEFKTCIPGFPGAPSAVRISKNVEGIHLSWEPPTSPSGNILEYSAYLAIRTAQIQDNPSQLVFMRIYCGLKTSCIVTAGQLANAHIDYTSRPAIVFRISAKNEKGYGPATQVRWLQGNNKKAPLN

NUDT6 (human) = molecular target: T2, NUDT6 (human) (UniProt P53370)
T2 sequence: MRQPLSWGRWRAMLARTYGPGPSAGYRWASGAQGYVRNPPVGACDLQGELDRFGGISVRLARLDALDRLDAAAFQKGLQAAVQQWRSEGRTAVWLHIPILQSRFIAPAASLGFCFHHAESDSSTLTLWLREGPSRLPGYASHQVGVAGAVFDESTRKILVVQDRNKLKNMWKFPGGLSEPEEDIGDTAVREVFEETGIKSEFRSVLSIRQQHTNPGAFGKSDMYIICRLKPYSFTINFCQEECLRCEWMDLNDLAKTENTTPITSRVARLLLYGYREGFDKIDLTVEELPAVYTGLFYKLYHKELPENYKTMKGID

SATB1 (human) = molecular target: T3, SATB1 (human) (UniProt Q01826)
T3 sequence: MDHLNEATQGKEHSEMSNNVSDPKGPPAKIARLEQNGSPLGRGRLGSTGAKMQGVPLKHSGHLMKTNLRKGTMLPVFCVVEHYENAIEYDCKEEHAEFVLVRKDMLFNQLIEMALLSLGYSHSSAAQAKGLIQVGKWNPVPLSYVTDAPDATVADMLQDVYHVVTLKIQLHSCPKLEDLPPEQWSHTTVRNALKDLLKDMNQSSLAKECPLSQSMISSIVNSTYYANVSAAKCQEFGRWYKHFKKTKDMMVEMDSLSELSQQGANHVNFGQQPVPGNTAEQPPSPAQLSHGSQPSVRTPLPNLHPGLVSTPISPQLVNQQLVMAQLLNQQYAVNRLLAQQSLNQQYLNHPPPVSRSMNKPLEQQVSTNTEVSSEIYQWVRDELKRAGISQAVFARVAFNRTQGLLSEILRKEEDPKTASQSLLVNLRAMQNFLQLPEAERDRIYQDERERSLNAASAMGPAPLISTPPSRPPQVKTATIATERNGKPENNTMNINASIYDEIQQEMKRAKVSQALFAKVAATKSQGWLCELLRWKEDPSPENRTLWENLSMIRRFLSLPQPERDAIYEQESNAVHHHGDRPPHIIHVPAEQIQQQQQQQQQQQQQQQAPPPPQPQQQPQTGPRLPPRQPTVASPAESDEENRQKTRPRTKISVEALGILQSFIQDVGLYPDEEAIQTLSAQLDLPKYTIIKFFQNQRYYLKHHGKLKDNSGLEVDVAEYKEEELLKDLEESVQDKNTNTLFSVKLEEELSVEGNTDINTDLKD

SOHLH2 (human) = molecular target: T4, SOHLH2 (human) (UniProt Q9NX45)
T4 sequence: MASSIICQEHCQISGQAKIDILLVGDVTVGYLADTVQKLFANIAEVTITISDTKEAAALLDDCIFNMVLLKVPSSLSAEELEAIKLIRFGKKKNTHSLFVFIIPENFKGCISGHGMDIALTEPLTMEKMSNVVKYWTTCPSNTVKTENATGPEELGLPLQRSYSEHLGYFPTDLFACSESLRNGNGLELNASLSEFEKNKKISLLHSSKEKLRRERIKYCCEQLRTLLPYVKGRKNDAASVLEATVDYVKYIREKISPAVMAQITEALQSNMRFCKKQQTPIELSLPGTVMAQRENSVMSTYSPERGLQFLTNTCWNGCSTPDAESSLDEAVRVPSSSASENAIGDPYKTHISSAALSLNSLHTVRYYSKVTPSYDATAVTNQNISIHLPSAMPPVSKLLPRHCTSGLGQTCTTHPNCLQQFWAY

- binding (HCFC2 (human)): binds
- binding (NUDT6 (human)): binds
- binding (SATB1 (human)): binds
- binding (SOHLH2 (human)): binds
Substance: linear ubiquitin chain assembly complex (LUBAC), purified as HIS-tagged HOIP with the subunit HOIL-1, biotin-labelled (from UniProt Q96EP0 1-1072; Q9BYM8 1-510)
